Experimental findings from paper PMC6937562 are described below.

Amino acid sequences for entries named in this document (tags omitted). A change or cut given only in a name is not applied to a line headed by its entry. Residues count along the entry.
UniProt P01024: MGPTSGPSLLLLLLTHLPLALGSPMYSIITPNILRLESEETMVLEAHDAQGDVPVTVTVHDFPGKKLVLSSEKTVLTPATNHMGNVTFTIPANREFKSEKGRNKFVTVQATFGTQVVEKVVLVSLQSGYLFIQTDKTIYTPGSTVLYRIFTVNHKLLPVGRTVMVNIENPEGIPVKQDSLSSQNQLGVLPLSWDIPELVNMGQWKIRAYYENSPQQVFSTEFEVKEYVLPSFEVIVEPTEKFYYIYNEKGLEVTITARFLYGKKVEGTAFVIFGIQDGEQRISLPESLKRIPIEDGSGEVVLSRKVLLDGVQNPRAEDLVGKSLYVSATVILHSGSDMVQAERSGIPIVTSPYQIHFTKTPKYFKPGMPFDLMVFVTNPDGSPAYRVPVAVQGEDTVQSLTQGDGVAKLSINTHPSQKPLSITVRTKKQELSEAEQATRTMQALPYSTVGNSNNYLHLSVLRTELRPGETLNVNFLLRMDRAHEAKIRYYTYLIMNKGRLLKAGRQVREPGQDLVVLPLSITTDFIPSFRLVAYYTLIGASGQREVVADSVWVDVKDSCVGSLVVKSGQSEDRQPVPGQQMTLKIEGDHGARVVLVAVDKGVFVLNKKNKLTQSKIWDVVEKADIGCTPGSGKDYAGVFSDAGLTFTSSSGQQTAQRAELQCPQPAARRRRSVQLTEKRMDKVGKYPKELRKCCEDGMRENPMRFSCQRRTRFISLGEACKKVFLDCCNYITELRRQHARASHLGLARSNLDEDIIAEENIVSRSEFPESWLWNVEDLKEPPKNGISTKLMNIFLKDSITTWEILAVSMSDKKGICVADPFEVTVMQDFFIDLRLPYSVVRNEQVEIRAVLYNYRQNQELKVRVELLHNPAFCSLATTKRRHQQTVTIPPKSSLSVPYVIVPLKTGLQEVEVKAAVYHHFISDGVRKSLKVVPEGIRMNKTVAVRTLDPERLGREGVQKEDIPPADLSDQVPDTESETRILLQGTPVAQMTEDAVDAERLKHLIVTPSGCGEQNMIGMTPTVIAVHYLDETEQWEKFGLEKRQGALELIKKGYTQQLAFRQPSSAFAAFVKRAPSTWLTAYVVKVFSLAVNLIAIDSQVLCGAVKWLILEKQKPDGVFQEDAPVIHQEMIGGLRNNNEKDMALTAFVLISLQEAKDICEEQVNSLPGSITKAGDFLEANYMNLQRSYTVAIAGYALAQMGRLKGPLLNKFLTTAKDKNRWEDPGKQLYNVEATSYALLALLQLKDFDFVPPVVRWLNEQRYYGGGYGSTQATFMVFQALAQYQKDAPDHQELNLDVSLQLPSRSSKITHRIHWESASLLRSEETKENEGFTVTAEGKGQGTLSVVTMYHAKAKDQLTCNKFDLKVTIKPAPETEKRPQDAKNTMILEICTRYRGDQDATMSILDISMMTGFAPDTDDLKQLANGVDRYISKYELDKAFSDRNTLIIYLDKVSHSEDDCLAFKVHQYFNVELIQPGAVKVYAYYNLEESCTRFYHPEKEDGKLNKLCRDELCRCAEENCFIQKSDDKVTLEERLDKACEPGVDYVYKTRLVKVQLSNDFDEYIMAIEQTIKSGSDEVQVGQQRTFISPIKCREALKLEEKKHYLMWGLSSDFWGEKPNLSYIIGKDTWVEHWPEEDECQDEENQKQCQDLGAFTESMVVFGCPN
UniProt P08603, residues 19-1231: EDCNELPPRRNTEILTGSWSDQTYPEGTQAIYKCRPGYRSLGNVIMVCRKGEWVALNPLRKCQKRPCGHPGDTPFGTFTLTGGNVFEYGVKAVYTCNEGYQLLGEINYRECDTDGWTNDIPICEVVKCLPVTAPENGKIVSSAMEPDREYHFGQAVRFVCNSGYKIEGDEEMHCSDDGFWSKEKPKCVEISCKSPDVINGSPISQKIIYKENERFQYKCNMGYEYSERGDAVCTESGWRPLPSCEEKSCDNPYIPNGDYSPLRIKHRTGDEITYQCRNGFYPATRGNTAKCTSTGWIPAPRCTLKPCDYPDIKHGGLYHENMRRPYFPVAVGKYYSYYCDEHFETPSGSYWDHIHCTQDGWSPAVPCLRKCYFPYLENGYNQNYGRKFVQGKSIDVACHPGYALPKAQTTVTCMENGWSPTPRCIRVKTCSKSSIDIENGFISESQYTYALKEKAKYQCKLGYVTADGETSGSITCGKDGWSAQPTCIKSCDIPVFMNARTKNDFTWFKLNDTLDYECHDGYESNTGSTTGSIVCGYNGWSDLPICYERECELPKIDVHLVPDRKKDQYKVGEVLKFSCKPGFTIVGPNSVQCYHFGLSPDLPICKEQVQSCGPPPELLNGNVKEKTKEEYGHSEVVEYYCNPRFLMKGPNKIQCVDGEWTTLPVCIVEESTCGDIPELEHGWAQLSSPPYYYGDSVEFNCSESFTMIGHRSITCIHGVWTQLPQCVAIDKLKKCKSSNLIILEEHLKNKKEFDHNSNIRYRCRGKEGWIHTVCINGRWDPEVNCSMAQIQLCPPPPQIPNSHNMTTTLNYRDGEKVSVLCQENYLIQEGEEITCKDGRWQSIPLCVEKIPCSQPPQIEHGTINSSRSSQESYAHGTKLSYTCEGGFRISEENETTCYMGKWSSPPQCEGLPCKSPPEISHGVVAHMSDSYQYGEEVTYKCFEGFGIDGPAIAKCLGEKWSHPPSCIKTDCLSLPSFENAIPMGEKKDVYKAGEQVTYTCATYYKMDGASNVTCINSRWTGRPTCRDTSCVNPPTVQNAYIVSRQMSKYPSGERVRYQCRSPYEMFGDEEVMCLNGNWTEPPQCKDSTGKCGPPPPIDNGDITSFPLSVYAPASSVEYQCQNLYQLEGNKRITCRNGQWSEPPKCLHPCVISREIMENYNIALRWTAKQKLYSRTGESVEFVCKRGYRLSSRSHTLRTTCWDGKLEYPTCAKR

In test [1] the target is C3b (human) (UniProt P01024). The experiment in a line: SPR; commercial C1 chip with the same C3b loading and identical reagents as the HJEM2 experiment; FH flowed; not shown; both purified. On the technique in general: SPR reads the build-up and loss of mass on a sensor chip optically.
The target of test [2] is C3b (human) (UniProt P01024). Description: AFM force-distance measurements; FH randomly amine-coupled directly to the SAM on the AFM probe tip; C3b amine-coupled to the SAM on a gold wafer; PBS, laboratory at 22 °C; single (type 3) detachment events; both purified.

No constants are given. Whether binding was seen depends on the method and setting. Some results given as binding are weak or reduced against the parent protein; the word gives no strength.

Take factor H (from UniProt P08603 19-1231): the binding result with C3b (human) [1] and with C3b (human) [2] was “binds” in each case.
